{"source": "paper PMC7819943", "about": "“Rice protein-binding microarrays: a tool to detect cis-acting elements near promoter regions in rice”", "note": "This is one part of the list.", "data": [{"target": "T1, OsSMF1 (Oryza sativa, UniProt Q6ZLB0 1-436)", "T1 sequence": "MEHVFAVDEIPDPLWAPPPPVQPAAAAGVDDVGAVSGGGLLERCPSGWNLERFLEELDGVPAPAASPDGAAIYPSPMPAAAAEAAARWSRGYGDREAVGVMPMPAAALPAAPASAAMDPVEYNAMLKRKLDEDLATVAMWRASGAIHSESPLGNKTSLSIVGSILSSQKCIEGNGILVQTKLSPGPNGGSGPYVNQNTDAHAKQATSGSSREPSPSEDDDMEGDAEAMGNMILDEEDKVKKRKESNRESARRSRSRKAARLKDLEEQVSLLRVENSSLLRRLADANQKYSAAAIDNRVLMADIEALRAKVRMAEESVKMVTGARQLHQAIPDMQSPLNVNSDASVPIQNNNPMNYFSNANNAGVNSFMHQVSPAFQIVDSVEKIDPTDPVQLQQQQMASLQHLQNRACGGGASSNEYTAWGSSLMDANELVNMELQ", "experiment": "protein-binding microarray (RPBM); PBS, 2% BSA, 51.3 ng/ul salmon testes DNA, 50 uM zinc acetate, 200 nM TF, 25 C, 1 h; high values mean tight binding", "details": "protein: recombinant; tags: N-terminal polyhistidine and DsRed monomer fusion (pET32a); chain copies: 2; label: CyDye5-dUTP incorporated in the synthesized complementary strand; 3' TTTTT single-stranded linker to array surface; dsDNA, one strand shown", "summary_of_the_method": "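For the binding signal, per-feature fluorescence intensity was read in arbitrary units on an Axon 4000B scanner. Before scanning, a 2% BSA-blocked custom Agilent array made double-stranded with Cy5-dUTP was washed after 1 h at 25 °C with 200 nM protein and 50 µM zinc acetate. The proteins were Ni–NTA-purified transcription factors with N-terminal polyhistidine and DsRed fusions, expressed in E. coli BL21-CodonPlus.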", "values": [{"sequence": "AGGGAGAAGAGATGGGCGACTGACATGACATATGACATATCGGAGTCACCTAGTGCAG", "binding signal": "3700 fluorescence intensity (a.u.)"}, {"sequence": "GCTTAAGTTTTAACCATTCCTGACACGTTTAACAGCGAATCGGAGTCACCTAGTGCAG", "binding signal": "4520 fluorescence intensity (a.u.)"}, {"sequence": "CATGCTAAGTAACAAGGTGTGTATCAGTTATTACTCAGCGCGGAGTCACCTAGTGCAG", "binding signal": "3530 fluorescence intensity (a.u.)"}, {"sequence": "TAATTGCTACGTCAGCACCACGTGGGATGAAGACCTAGTCCGGAGTCACCTAGTGCAG", "binding signal": "33500 fluorescence intensity (a.u.)"}, {"sequence": "GAGTAGTACAGATTGCTCAGACGGGTCGTCTCACCACCATCGGAGTCACCTAGTGCAG", "binding signal": "4240 fluorescence intensity (a.u.)"}, {"sequence": "CAAATCTCTAGCTTCCCCAATGACTAATGGAACTCATACACGGAGTCACCTAGTGCAG", "binding signal": "3290 fluorescence intensity (a.u.)"}, {"sequence": "ACTCTAATTTCCTAACGTTTCTTGACGTAGCCATAAGGTTCGGAGTCACCTAGTGCAG", "binding signal": "4270 fluorescence intensity (a.u.)"}, {"sequence": "ATCACATCAAAACTTTTCTACACATATAAACTTCTAACTTCGGAGTCACCTAGTGCAG", "binding signal": "27400 fluorescence intensity (a.u.)"}, {"sequence": "AACTGAAAGATCATTGTACACACCAGCATTACCTGTAAACCGGAGTCACCTAGTGCAG", "binding signal": "4240 fluorescence intensity (a.u.)"}, {"sequence": "ACGGTGGTGGGTGGGCCACCATATGGATTGGTGGAGGACGCGGAGTCACCTAGTGCAG", "binding signal": "3310 fluorescence intensity (a.u.)"}, {"sequence": "CACACTGATACGCAACGCACGTAGCTACTGTACTGTAGGACGGAGTCACCTAGTGCAG", "binding signal": "3290 fluorescence intensity (a.u.)"}, {"sequence": "TAATCATACGCTAATGGCTCACATCGTTTTGCATATCTTTCGGAGTCACCTAGTGCAG", "binding signal": "3300 fluorescence intensity (a.u.)"}, {"sequence": "TTCTCTTGCTCCCTAACCCAGCAACCAAACAAAGCGGATTCGGAGTCACCTAGTGCAG", "binding signal": "3230 fluorescence intensity (a.u.)"}, {"sequence": "ACCCATAGATGAATATCCATTTATCTTTCCCTTTTCGTACCGGAGTCACCTAGTGCAG", "binding signal": "3140 fluorescence intensity (a.u.)"}, {"sequence": "TTTGGGTAGATGAAACATATCATAGCTTGTTCAGTACTATCGGAGTCACCTAGTGCAG", "binding signal": "3270 fluorescence intensity (a.u.)"}, {"sequence": "ATTTTAATAATCCGCTTGCATCATTGCCTAGTTGCCTCTTCGGAGTCACCTAGTGCAG", "binding signal": "22700 fluorescence intensity (a.u.)"}, {"sequence": "CTTCTCCCTCACCATCACCAACAAGAGAGAGGAGGAGTGGCGGAGTCACCTAGTGCAG", "binding signal": "3590 fluorescence intensity (a.u.)"}, {"sequence": "TGCCTGGGAAGGCGGAGGAAAACGTGGGTCCGAAGGTGGGCGGAGTCACCTAGTGCAG", "binding signal": "24300 fluorescence intensity (a.u.)"}, {"sequence": "AGCTGCTTTCTGCGCTAATGACGGTGCGGGGCAGCGGCCGCGGAGTCACCTAGTGCAG", "binding signal": "6020 fluorescence intensity (a.u.)"}, {"sequence": "ATGTGGTTGTTCCATTTAGGATGGGGACGTGGCATCCTGTCGGAGTCACCTAGTGCAG", "binding signal": "15000 fluorescence intensity (a.u.)"}, {"sequence": "GCCCGCCACGTCTCTAAGTCGCTAGTACGCGCGAATTAGCCGGAGTCACCTAGTGCAG", "binding signal": "4350 fluorescence intensity (a.u.)"}, {"sequence": "CTGTCGCTTTTCTAGTGACGTGTGGCCCATACTTATTGGGCGGAGTCACCTAGTGCAG", "binding signal": "5870 fluorescence intensity (a.u.)"}, {"sequence": "GTTTCTAAATTTTGTTGCAACTTCCTTTCCAGGGTATCTGCGGAGTCACCTAGTGCAG", "binding signal": "3180 fluorescence intensity (a.u.)"}, {"sequence": "CTCGGCATGGCCCACAACTCCCGGAATCCGCCTCACGTGGCGGAGTCACCTAGTGCAG", "binding signal": "3420 fluorescence intensity (a.u.)"}, {"sequence": "GCAATGAGCTATATGCTGTACTGCCAGGGATGCTATGGTACGGAGTCACCTAGTGCAG", "binding signal": "5450 fluorescence intensity (a.u.)"}, {"sequence": "CTATATATATGTGATCCCTAGACTCCAGCTGTACTGCTGTCGGAGTCACCTAGTGCAG", "binding signal": "4800 fluorescence intensity (a.u.)"}, {"sequence": "ACGTACCTTGTATTTATCATCTGATCTGCGAATTGAGGCCCGGAGTCACCTAGTGCAG", "binding signal": "33300 fluorescence intensity (a.u.)"}, {"sequence": "TCCAAGTCTAGGGTTTCATCCTCCTCCTCCTCCTCCGCCGCGGAGTCACCTAGTGCAG", "binding signal": "20400 fluorescence intensity (a.u.)"}, {"sequence": "GTGACTACGGTAAGAAAATATCGAGTCAGCAAGAAAGCTACGGAGTCACCTAGTGCAG", "binding signal": "5650 fluorescence intensity (a.u.)"}, {"sequence": "TGCCTACATATAATATGTCAGACACGTACCTCACAAACCACGGAGTCACCTAGTGCAG", "binding signal": "4420 fluorescence intensity (a.u.)"}, {"sequence": "TCCAACTCAGTAATTTATTTGAGTATTACATGATATCATTCGGAGTCACCTAGTGCAG", "binding signal": "3160 fluorescence intensity (a.u.)"}, {"sequence": "AATATTTACATTACTAAATTAGTTTTATTAAATTAATAATCGGAGTCACCTAGTGCAG", "binding signal": "19800 fluorescence intensity (a.u.)"}, {"sequence": "ACCTTATTTGCATTGATTTTAGGAGTTAAGGGACGCGTCACGGAGTCACCTAGTGCAG", "binding signal": "5920 fluorescence intensity (a.u.)"}, {"sequence": "GCTTAACTGCTAGTACTACTAACACCTCACCTACCTCCCTCGGAGTCACCTAGTGCAG", "binding signal": "3200 fluorescence intensity (a.u.)"}, {"sequence": "TGATGGCGGCTTTAGGTGACATGCAGCATTAAGTGGCATGCGGAGTCACCTAGTGCAG", "binding signal": "4460 fluorescence intensity (a.u.)"}, {"sequence": "TGAGCCTCCGCCGCCCACCGCCGCCTCGCGGGATTGTTCGCGGAGTCACCTAGTGCAG", "binding signal": "25300 fluorescence intensity (a.u.)"}, {"sequence": "TCACTTACTTGGCTACGAGTTCTTGCCATGTACACTCCATCGGAGTCACCTAGTGCAG", "binding signal": "3200 fluorescence intensity (a.u.)"}, {"sequence": "GTGGTGGTGTGTGCTCCTCGTGGCTCGCCGGATCACGTGGCGGAGTCACCTAGTGCAG", "binding signal": "5050 fluorescence intensity (a.u.)"}, {"sequence": "CGTATATATAAGCTAGCTGCTCGTTCTTGTTGGCTCCTTCCGGAGTCACCTAGTGCAG", "binding signal": "3140 fluorescence intensity (a.u.)"}, {"sequence": "TGTGGATGTACATCATCAACTAATTAAACAATCTCTCTTGCGGAGTCACCTAGTGCAG", "binding signal": "3530 fluorescence intensity (a.u.)"}, {"sequence": "CAAACAGCGACCCCGAACTCCCCAACTACCAAACCAAACTCGGAGTCACCTAGTGCAG", "binding signal": "3400 fluorescence intensity (a.u.)"}, {"sequence": "CGGCAGCCACCTCCCCACTCCATCCTCTCGTCCCCTTTTACGGAGTCACCTAGTGCAG", "binding signal": "3870 fluorescence intensity (a.u.)"}]}]}
